# Measured values taken from the supplement of paper PMC8728848.
# This is one part of the list.
# Experiments:
# Test in all cases: glycan array binding signal (z-score within array); higher = stronger binding
# Conditions in all cases: glycan notation: IUPAC condensed, linker removed
# [1] = molecular target: GalNAc3S(b1-4)[Fuc(a1-3)]GlcNAc
# Outline: (§1)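 The binding signal is a Z-score computed within each array and averaged over linkers. Arrays of the same protein sequence at different concentrations or buffers were also averaged together. Data originate from 3228 arrays in the Consortium for Functional Glycomics database, kept only where the protein sequence was available.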
# GalNAc4S6S(b1-4)GlcNAc = molecular target: GalNAc4S6S(b1-4)GlcNAc
# Outline: as §1
# GalNAc6S(b1-4)GlcNAc = molecular target: GalNAc6S(b1-4)GlcNAc
# Outline: as §1
# Glc(a1-4)Glc = molecular target: Glc(a1-4)Glc
# Outline: as §1
# [2] = molecular target: Glc(a1-4)Glc(a1-4)Glc(a1-4)Glc
# Outline: as §1
# Glc(a1-6)Glc(a1-6)Glc = molecular target: Glc(a1-6)Glc(a1-6)Glc
# Outline: as §1
# [3] = molecular target: Glc(a1-6)Glc(a1-6)Glc(a1-6)Glc
# Outline: as §1
# Glc(b1-4)Glc = molecular target: Glc(b1-4)Glc
# Outline: as §1
# Glc(b1-6)Glc = molecular target: Glc(b1-6)Glc
# Outline: as §1
# GlcA(b1-3)Gal = molecular target: GlcA(b1-3)Gal
# Outline: as §1
# GlcA(b1-3)GlcNAc = molecular target: GlcA(b1-3)GlcNAc
# Outline: as §1
# GlcA(b1-6)Gal = molecular target: GlcA(b1-6)Gal
# Outline: as §1
# [4] = molecular target: GlcA3S(b1-3)Gal(b1-4)GlcNAc(b1-2)Man
# Outline: as §1
# [5] = molecular target: GlcA3S(b1-3)Gal(b1-4)GlcNAc(b1-3)Gal(b1-4)Glc
# Outline: as §1
# [6] = molecular target: GlcNAc(a1-3)Gal(b1-4)GlcNAc
# Outline: as §1
# [7] = molecular target: GlcNAc(a1-4)Gal(b1-3)GlcNAc
# Outline: as §1
# [8] = molecular target: GlcNAc(a1-4)Gal(b1-4)GalNAc
# Outline: as §1
# [9] = molecular target: GlcNAc(a1-4)Gal(b1-4)GlcNAc
# Outline: as §1
# [10] = molecular target: GlcNAc(a1-4)Gal(b1-4)GlcNAc(b1-3)Gal(b1-4)Glc
# Outline: as §1
# [11] = molecular target: GlcNAc(a1-4)Gal(b1-4)GlcNAc(b1-3)Gal(b1-4)GlcNAc
# Outline: as §1
# [12] = molecular target: GlcNAc(a1-4)Gal(b1-4)GlcNAc(b1-3)Gal(b1-4)GlcNAc(b1-3)Gal(b1-4)GlcNAc
# Outline: as §1
# [13] = molecular target: GlcNAc(a1-4)Gal(b1-4)GlcNAc(b1-3)Gal(b1-4)[Fuc(a1-3)]GlcNAc(b1-3)Gal(b1-4)[Fuc(a1-3)]GlcNAc
# Outline: as §1
# [14] = molecular target: GlcNAc(a1-6)Gal(b1-4)GlcNAc
# Outline: as §1
# [15] = molecular target: GlcNAc(b1-2)Gal(b1-3)GalNAc
# Outline: as §1
# [16] = molecular target: GlcNAc(b1-2)Man(a1-3)[GlcNAc(b1-2)Man(a1-6)]Man(b1-4)GlcNAc(b1-4)GlcNAc
# Outline: as §1
# [17] = molecular target: GlcNAc(b1-2)Man(a1-3)[GlcNAc(b1-2)Man(a1-6)]Man(b1-4)GlcNAc(b1-4)[Fuc(a1-6)]GlcNAc
# Outline: as §1
# [18] = molecular target: GlcNAc(b1-2)Man(a1-3)[GlcNAc(b1-4)][GlcNAc(b1-2)Man(a1-6)]Man(b1-4)GlcNAc(b1-4)GlcNAc
# Outline: as §1
# [19] = molecular target: GlcNAc(b1-2)Man(a1-3)[GlcNAc(b1-4)][GlcNAc(b1-2)Man(a1-6)]Man(b1-4)GlcNAc(b1-4)[Fuc(a1-6)]GlcNAc
# Outline: as §1
# [20] = molecular target: GlcNAc(b1-2)[GlcNAc(b1-4)]Man(a1-3)[GlcNAc(b1-2)Man(a1-6)]Man(b1-4)GlcNAc(b1-4)GlcNAc
# Outline: as §1
# [21] = molecular target: GlcNAc(b1-2)[GlcNAc(b1-4)]Man(a1-3)[GlcNAc(b1-4)][GlcNAc(b1-2)Man(a1-6)]Man(b1-4)GlcNAc(b1-4)GlcNAc
# Outline: as §1
# [22] = molecular target: GlcNAc(b1-2)[GlcNAc(b1-4)]Man(a1-3)[GlcNAc(b1-4)][GlcNAc(b1-2)[GlcNAc(b1-6)]Man(a1-6)]Man(b1-4)GlcNAc(b1-4)GlcNAc
# Outline: as §1
# [23] = molecular target: GlcNAc(b1-2)[GlcNAc(b1-4)]Man(a1-3)[GlcNAc(b1-4)][GlcNAc(b1-2)[GlcNAc(b1-6)]Man(a1-6)]Man(b1-4)GlcNAc(b1-4)[Fuc(a1-6)]GlcNAc
# Outline: as §1
# [24] = molecular target: GlcNAc(b1-2)[GlcNAc(b1-6)]Man(a1-6)[GlcNAc(b1-2)Man(a1-3)]Man(b1-4)GlcNAc(b1-4)GlcNAc
# Outline: as §1
# [25] = molecular target: GlcNAc(b1-2)[GlcNAc(b1-6)]Man(a1-6)[GlcNAc(b1-2)Man(a1-3)]Man(b1-4)GlcNAc(b1-4)[Fuc(a1-6)]GlcNAc
# Outline: as §1
# [26] = molecular target: GlcNAc(b1-2)[GlcNAc(b1-6)]Man(a1-6)[GlcNAc(b1-4)][GlcNAc(b1-2)Man(a1-3)]Man(b1-4)GlcNAc(b1-4)GlcNAc
# Outline: as §1
# GlcNAc(b1-3)Fuc = molecular target: GlcNAc(b1-3)Fuc
# Outline: as §1
# GlcNAc(b1-3)Gal = molecular target: GlcNAc(b1-3)Gal
# Outline: as §1
# [27] = molecular target: GlcNAc(b1-3)Gal(b1-3)GalNAc
# Outline: as §1
binder,measurement,setting,value
PX14343C-bfa-541-26-541 (Bacteroides fragilis) (protein) KAPLDEIADDSFWSDETLVKYYVNDLYSEISVDGLQLQENRSDNSVSAQRDKYRASWFKFNYDMVSASDPQDDDVWEDYYVKVRKCNRFFERIGTSTIEESEKSRLTGEVHFLRAMFYFEMVKRYGGVILLDKVLTMEDNWEIPRSSEKECYDFILEDLKKATEMLPASYGSREKGRATKGAAYALKSRVELYDKRYEDVIKSCAEVYKLGYELVDGTTPEKYRSIWWTTNKDNKEIIFDVQYKSPDVYNNMMVCNMVTYINDKYGDRGWGGLGPTQELIDAFEMADGTPATQYSQAPADQVFDINTCGIYEGREPRFYANIVFHGSQIFFNADKGAVTVDRYLMDTPDKGDGSLTGYNVWKWIDYDNYNYPYAGAGSPDFSTNWIILRYAEIYLNDAEARLETGDVEGARKAVNMIRQRVGLPDLTESDPEKLRELIRKERRIEFAFEEQRFYDVRRWKIGPETQTTLHGVRFVSPTEFKVTKTDIRTWNDRLYLTPVPHDEIVRSSVLKQNLGY,glycan array binding signal (z-score),[1],-0.109
same,glycan array binding signal (z-score),GalNAc4S6S(b1-4)GlcNAc,-0.04
same,glycan array binding signal (z-score),GalNAc6S(b1-4)GlcNAc,-0.178
same,glycan array binding signal (z-score),Glc(a1-4)Glc,-0.938
same,glycan array binding signal (z-score),[2],0.357
same,glycan array binding signal (z-score),Glc(a1-6)Glc(a1-6)Glc,0.168
same,glycan array binding signal (z-score),[3],0.433
same,glycan array binding signal (z-score),Glc(b1-4)Glc,-0.686
same,glycan array binding signal (z-score),Glc(b1-6)Glc,-0.118
same,glycan array binding signal (z-score),GlcA(b1-3)Gal,-0.328
same,glycan array binding signal (z-score),GlcA(b1-3)GlcNAc,-0.706
same,glycan array binding signal (z-score),GlcA(b1-6)Gal,0.479
same,glycan array binding signal (z-score),[4],0.092
same,glycan array binding signal (z-score),[5],-0.274
same,glycan array binding signal (z-score),[6],-0.839
same,glycan array binding signal (z-score),[7],0.456
same,glycan array binding signal (z-score),[8],0.256
same,glycan array binding signal (z-score),[9],-0.593
same,glycan array binding signal (z-score),[10],-0.77
same,glycan array binding signal (z-score),[11],0.216
same,glycan array binding signal (z-score),[12],-1.04
same,glycan array binding signal (z-score),[13],1.91
same,glycan array binding signal (z-score),[14],-1.31
same,glycan array binding signal (z-score),[15],-0.932
same,glycan array binding signal (z-score),[16],-0.69
same,glycan array binding signal (z-score),[17],-0.455
same,glycan array binding signal (z-score),[18],-0.078
same,glycan array binding signal (z-score),[19],0.535
same,glycan array binding signal (z-score),[20],-0.156
same,glycan array binding signal (z-score),[21],-0.349
same,glycan array binding signal (z-score),[22],0.147
same,glycan array binding signal (z-score),[23],-1.03
same,glycan array binding signal (z-score),[24],-0.274
same,glycan array binding signal (z-score),[25],-0.72
same,glycan array binding signal (z-score),[26],-0.265
same,glycan array binding signal (z-score),GlcNAc(b1-3)Fuc,-0.353
same,glycan array binding signal (z-score),GlcNAc(b1-3)Gal,-0.587
same,glycan array binding signal (z-score),[27],0.341

# 3 records drawn at random from those above:
binder,measurement,setting,value
PX14343C-bfa-541-26-541 (Bacteroides fragilis) (protein) KAPLDEIADDSFWSDETLVKYYVNDLYSEISVDGLQLQENRSDNSVSAQRDKYRASWFKFNYDMVSASDPQDDDVWEDYYVKVRKCNRFFERIGTSTIEESEKSRLTGEVHFLRAMFYFEMVKRYGGVILLDKVLTMEDNWEIPRSSEKECYDFILEDLKKATEMLPASYGSREKGRATKGAAYALKSRVELYDKRYEDVIKSCAEVYKLGYELVDGTTPEKYRSIWWTTNKDNKEIIFDVQYKSPDVYNNMMVCNMVTYINDKYGDRGWGGLGPTQELIDAFEMADGTPATQYSQAPADQVFDINTCGIYEGREPRFYANIVFHGSQIFFNADKGAVTVDRYLMDTPDKGDGSLTGYNVWKWIDYDNYNYPYAGAGSPDFSTNWIILRYAEIYLNDAEARLETGDVEGARKAVNMIRQRVGLPDLTESDPEKLRELIRKERRIEFAFEEQRFYDVRRWKIGPETQTTLHGVRFVSPTEFKVTKTDIRTWNDRLYLTPVPHDEIVRSSVLKQNLGY,glycan array binding signal (z-score),[1],-0.109
same,glycan array binding signal (z-score),[19],0.535
same,glycan array binding signal (z-score),[22],0.147
